Results as given in patent US20240016819A1, “CANNABINOIDS FOR USE IN THE TREATMENT OF EPILEPSY” (GW RESEARCH LIMITED, priority 2020, published 2024).

Assay: Solubility of the drug substance in water
Format: physicochemical

C=C(C)[C@@H]1CCC(C)=C[C@H]1c1c(O)cc(CCCCC)cc1O [CBD Extract, Cannabidiol]
solubility in water: insoluble in water
